According to patent US7923573B2, “Benzene compound having 2 or more substituents” (Daiichi Sankyo Company, Limited, priority 2004, dated 2011):
Some of these results come from one statement about several compounds together.

biological target: T1, LXRβ (Homo sapiens, UniProt P55055); assay: Co-transfection assay (LXR/LXRE luciferase reporter), LXRβ; assay type: cell-based; settings: CV-1 cells transfected with hLXRβ and LXRE luciferase reporter; agonist activity; read-out: EC50 value against LXRβ
T1 construct: expressed in transfected cells; host or cells: CV-1 African green monkey kidney cells (ATCC CCL-70)
T1 sequence (P55055 1-460): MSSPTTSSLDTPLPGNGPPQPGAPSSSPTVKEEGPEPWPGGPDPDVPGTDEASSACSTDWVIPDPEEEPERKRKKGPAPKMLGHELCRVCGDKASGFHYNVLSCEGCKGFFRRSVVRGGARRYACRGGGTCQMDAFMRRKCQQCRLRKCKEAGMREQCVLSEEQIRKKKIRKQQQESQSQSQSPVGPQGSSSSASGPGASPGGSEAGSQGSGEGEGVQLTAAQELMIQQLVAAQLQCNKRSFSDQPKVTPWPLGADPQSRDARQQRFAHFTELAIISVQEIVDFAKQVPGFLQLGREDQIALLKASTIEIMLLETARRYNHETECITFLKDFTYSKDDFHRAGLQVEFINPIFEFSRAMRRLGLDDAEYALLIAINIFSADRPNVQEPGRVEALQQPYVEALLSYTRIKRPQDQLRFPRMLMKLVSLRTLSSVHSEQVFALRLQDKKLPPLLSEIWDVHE
T1 sequence (P19793 1-462 partner): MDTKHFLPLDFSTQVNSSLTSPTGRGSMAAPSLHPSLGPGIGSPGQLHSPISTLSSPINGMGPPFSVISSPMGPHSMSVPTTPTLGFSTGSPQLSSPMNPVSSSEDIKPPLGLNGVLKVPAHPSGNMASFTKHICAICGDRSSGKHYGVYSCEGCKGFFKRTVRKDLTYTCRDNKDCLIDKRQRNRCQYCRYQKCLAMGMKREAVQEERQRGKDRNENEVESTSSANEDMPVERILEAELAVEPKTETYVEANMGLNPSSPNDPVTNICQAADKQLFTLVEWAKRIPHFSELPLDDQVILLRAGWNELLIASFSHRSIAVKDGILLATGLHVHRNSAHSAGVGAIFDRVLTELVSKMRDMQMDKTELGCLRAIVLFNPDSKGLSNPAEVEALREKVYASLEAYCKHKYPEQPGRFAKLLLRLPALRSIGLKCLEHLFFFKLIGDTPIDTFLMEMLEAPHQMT

Row | Structure (SMILES) | EC50
1 | CCc1cc(-c2ccc(OCc3ccc(C(F)(F)F)c(O)c3C(=O)OC(C)(C)C)cc2)ccc1CC(=O)O [Example 85, (4′-{[2-(tert-Butoxycarbonyl)-3-hydroxy-4-(trifluoromethyl)benzyl]oxy}-3-ethyl-1,1′-biphenyl-4-yl)acetic acid] | ≤ 3 µM
2 | CC(C)(C)OC(=O)c1c(COc2ccc(-c3ccc(CC(=O)O)c(Cl)c3)nc2)ccc(C(F)(F)F)c1O [Example 86, [4-(5-{[2-(tert-Butoxycarbonyl)-3-hydroxy-4-(trifluoromethyl)benzyl]oxy}-2-pyridinyl)-2-chlorophenyl]acetic acid] | ≤ 3 µM
3 | CC(C)(C)OC(=O)c1c(O)c(C(F)(F)F)cc(O)c1COc1ccc(-c2ccc(CC(=O)O)cc2)cc1 [Example 87, (4′-{[2-(tert-Butoxycarbonyl)-3,6-dihydroxy-4-(trifluoromethyl)benzyl]oxy}-1,1′-biphenyl-4-yl)acetic acid] | ≤ 3 µM
4 | CC(O)c1cc(CC(=O)O)ccc1-c1ccc(OCc2ccc(C(F)(F)F)c(O)c2C(=O)OC(C)(C)C)cc1 (stereo not drawn) [Example 88, (4′-{[2-(tert-Butoxycarbonyl)-3-hydroxy-4-(trifluoromethyl)benzyl]oxy}-2-(1-hydroxyethyl)-1,1′-biphenyl-4-yl)acetic acid] | ≤ 3 µM
5 | CN(C)C(=O)c1cc(-c2ccc(OCc3ccc(C(F)(F)F)c(O)c3C(=O)OC(C)(C)C)cc2)ccc1CC(=O)O [Example 89, (4′-{[2-(tert-Butoxycarbonyl)-3-hydroxy-4-(trifluoromethyl)benzyl]oxy}-3-[(dimethylamino)carbonyl]-1,1′-biphenyl-4-yl)acetic acid] | ≤ 3 µM
6 | CCc1c(CC(=O)O)cccc1-c1ccc(OCc2ccc(C(F)(F)F)c(O)c2C(=O)OC(C)(C)C)cc1 [Example 90, (4′-{[2-(tert-Butoxycarbonyl)-3-hydroxy-4-(trifluoromethyl)benzyl]oxy}-2-ethyl-1,1′-biphenyl-3-yl)acetic acid] | ≤ 3 µM
7 | CC(C)(C)OC(=O)c1c(COc2ccc(-c3ccc(CC(=O)O)c(F)c3F)cc2)ccc(C(F)(F)F)c1O [Example 91, (4′-{[2-(tert-Butoxycarbonyl)-3-hydroxy-4-(trifluoromethyl)benzyl]oxy}-2,3-difluoro-1,1′-biphenyl-4-yl)acetic acid] | ≤ 3 µM
8 | Cc1c(CC(=O)O)ccc(-c2ccc(OCc3ccc(C(F)(F)F)c(O)c3C(=O)OC(C)(C)C)cc2)c1C [Example 92, (4′-{[2-(tert-Butoxycarbonyl)-3-hydroxy-4-(trifluoromethyl)benzyl]oxy}-2,3-dimethyl-1,1′-biphenyl-4-yl)acetic acid] | ≤ 3 µM
9 | CN(C)CC(C(=O)O)c1ccc(-c2ccc(OCc3ccc(C(F)(F)F)c(O)c3C(=O)OC(C)(C)C)cc2)cc1F (stereo not drawn) [Example 93, 2-(4′-{[2-(tert-Butoxycarbonyl)-3-hydroxy-4-(trifluoromethyl)benzyl]oxy}-3-fluoro-1,1′-biphenyl-4-yl)-3-(dimethylamino)propanoic acid] | ≤ 3 µM
10 | CCc1cc(C(C)C(=O)O)ccc1-c1ccc(OCc2ccc(C(F)(F)F)c(O)c2C(=O)OC(C)(C)C)cc1 (stereo not drawn) [Example 94, 2-(4′-{[2-(tert-Butoxycarbonyl)-3-hydroxy-4-(trifluoromethyl)benzyl]oxy}-2-ethyl-1,1′-biphenyl-4-yl)propanoic acid] | ≤ 3 µM
11 | CC(C)(C)OC(=O)c1c(COc2ccc(-c3ccc(-c4nnn[nH]4)cc3)cc2)ccc(C(F)(F)F)c1O [Example 95, tert-Butyl 2-hydroxy-6-({[4′(1H-tetrazol-5-yl)-1,1′-biphenyl-4-yl]oxy}methyl)-3-(trifluoromethyl)benzoate] | ≤ 3 µM
12 | Cc1cc(CC(=O)O)sc1-c1ccc(OCc2ccc(C(F)(F)F)c(O)c2C(=O)OC(C)(C)C)cc1 [Example 96, [5-(4-([2-(tert-Butoxycarbonyl)-3-hydroxy-4-(trifluoromethyl)benzyl]oxy)phenyl)-4-methyl-2-thienyl]acetic acid] | ≤ 3 µM
